The whole screen tested about 410,000 compounds, of which about 18,000 (4.4%) were called active. Inconclusive means that the source gave no clear call. Such entries were picked first, then a sample of the others. Cut-off read from the data, not from the text of the source: active = activity change below about -60%; inconclusive = no clear call, values can overlap the other calls; inactive = above about -39%.
Assay: qHTS Assay for inhibitors of the human cytomegalovirus (HCMV)
Settings: HFF cells, HCMV-luciferase reporter, 72 h; at 57.5 µM; hits give low values
In short: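 Inhibition of viral replication was scored as loss of reporter luminescence in HFFs infected with HCMV-luciferase (MOI 1 PFU/cell) for 72 h; compounds tested at 2 doses, normalized to buffer and Salinomycin controls.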
In the case of `Cn1c(SCC(=O)NC2CCCC2)nc2c(c1=O)SCC2`, the activity change, negative = inhibition is reported as inactive: -13.6%.
For `Cc1cc(Nc2n[nH]c(N)c2C#N)ccc1F`, the activity change, negative = inhibition was inactive: 41.6%.
In the case of `O=C(Nc1nnc([C@@H]2C[C@H](O)[C@@H](CO)O2)s1)c1c(F)cccc1F`, the activity change, negative = inhibition is reported as inactive: -16.8%.
With `O=C(Oc1cccc(C(=S)N2CCOCC2)c1)c1cccc(Cl)c1` the activity change, negative = inhibition was inactive: -4.94%.
With `CC1=C(C(=O)Nc2ccccc2)C(c2cccc(O)c2)n2nc(-c3ccccc3Cl)nc2N1` (stereo not drawn) the activity change, negative = inhibition was inactive: 25.9%.
With `CCc1cccc(NS(=O)(=O)c2ccc3c(c2)oc(=O)n3C)c1` the activity change, negative = inhibition was inconclusive: -54.8%.
In the case of `COc1ccc(OC)c(NC(=O)Cn2nc(C)c3ccccc3c2=O)c1`, the activity change, negative = inhibition is reported as inconclusive: -40.1%.
With `Cc1ccc(C(=O)NCCCNC(=O)c2cccnc2)cc1` the activity change, negative = inhibition was inactive: 12.5%.
In the case of `c1cncc(CSc2ccc(-c3cccnc3)nn2)c1`, the activity change, negative = inhibition is reported as inactive: 13.7%.
With `Cc1nnc(SCc2c(Cl)cccc2[N+](=O)[O-])s1` the activity change, negative = inhibition was inconclusive: -41.3%.
With `CCCCSc1nnc([C@@H]2CCCN2C(=O)OC(C)(C)C)o1` the activity change, negative = inhibition was inactive: 21.6%.
With `Cc1c2cnn(CC(=O)NCc3ccccn3)c(=O)c2c(C)n1Cc1ccc(Cl)cc1` the activity change, negative = inhibition was inconclusive: -46.9%.
With `CCOC(=O)CSc1nc(N2CCOCC2)c2c(c1C#N)CC(C(C)C)OC2` (stereo not drawn) the activity change, negative = inhibition was inconclusive: -45%.
With `CC(C)NC1CCC(Nc2ccnc3cc(Cl)ccc23)CC1` (stereo not drawn) the activity change, negative = inhibition was inconclusive: -40.2%.
In the case of `CC1CC(C)CN(CCCNC(=O)CCNC(=O)Cn2cnc3ccccc3c2=O)C1` (stereo not drawn), the activity change, negative = inhibition is reported as inactive: -10.6%.
With `CCN(CC)S(=O)(=O)c1ccc(S(=O)(=O)N2CCCC(C(=O)NC3CC3)C2)cc1` (stereo not drawn) the activity change, negative = inhibition was active: -82.6%.
In the case of `CN1CCN(CCCCC(=O)c2ccccc2)CC1`, the activity change, negative = inhibition is reported as inconclusive: -41.4%.
In the case of `CC(=O)N(Cc1cccnc1)c1nc2ccc(F)cc2s1`, the activity change, negative = inhibition is reported as active: -76.7%.
In the case of `COc1ccc(NS(=O)(=O)c2ccc(NC(=O)c3ccc(Br)cc3)cc2)nn1`, the activity change, negative = inhibition is reported as inactive: 4.17%.
In the case of `CCC(CC)C(=O)Nc1ccc(Sc2ccc([N+](=O)[O-])cc2)cc1`, the activity change, negative = inhibition is reported as active: -96.3%.
With `CCCOC(=O)C1=C(C)NC(=O)NC1c1cccc2ccccc12` (stereo not drawn) the activity change, negative = inhibition was inconclusive: -46.5%.
In the case of `COC(=O)c1cc2oc3ccccc3c2n1CC(=O)Nc1cc(OC)cc(OC)c1`, the activity change, negative = inhibition is reported as inconclusive: -58.6%.
For `CCc1nc2ccc(C(=O)NCc3cccs3)cn2c1N(CC)CCN(C)C`, the activity change, negative = inhibition was inactive: -9.34%.
With `O=C(Nc1ccccc1NC(=O)NC1CCCCC1)NC1CCCCC1` the activity change, negative = inhibition was active: -106%.
For `COC(=O)c1ccc2c(=O)n(CCN3CCOCC3)c(SCC(=O)Nc3ccccc3Cl)nc2c1`, the activity change, negative = inhibition was inconclusive: -47.8%.
With `COC(=O)C1=CN(c2cccc(C(F)(F)F)c2)C=C(C(=O)OC)C1c1ccc(O)c(OC)c1` the activity change, negative = inhibition was inactive: -20.7%.
With `CC(C)c1ccc(Nc2ncc3c(n2)CCN(C(=O)Nc2ccc(F)c(Cl)c2)C3)cc1` the activity change, negative = inhibition was active: -75.3%.
In the case of `COc1ccc2[nH]c(C(=O)N/N=C/c3cc(OC)c(OC)c(OC)c3)cc2c1`, the activity change, negative = inhibition is reported as inconclusive: -46.9%.
With `COc1ccccc1NS(=O)(=O)c1cccc(C(=O)NNC(=O)c2ccc(Cl)nc2)c1` the activity change, negative = inhibition was inconclusive: -43.6%.
With `COC(=O)c1cc(S(=O)(=O)NCC2CCN(Cc3ccc(Cl)cc3)CC2)cn1C` the activity change, negative = inhibition was inconclusive: -45%.
In the case of `CCCN(CC(=O)Nc1ccccc1C)C(=O)/C=C/c1ccc(OCC)c(OC)c1`, the activity change, negative = inhibition is reported as inactive: 1.49%.
In the case of `Cc1[nH]c2ccccc2c1CC(=O)Nc1ccc(Nc2cccnc2)c(-c2cc(F)cc(F)c2)c1`, the activity change, negative = inhibition is reported as inactive: -11.4%.
With `CCOC(=O)/C=c1/s/c(=C/c2ccc3cc(OC)ccc3c2)c(=O)n1CC(=O)NCc1ccc2c(c1)OCO2` the activity change, negative = inhibition was inconclusive: -43.8%.
In the case of `COc1cccc(C(=O)Nc2cccc3c2ccc2cccn23)c1`, the activity change, negative = inhibition is reported as inactive: -23.3%.
For `CNc1ccc(Br)cc(C(=O)/C=C/c2ccc(OC)cc2)c1=O`, the activity change, negative = inhibition was inactive: 3.18%.
For `CCn1c(SCc2ccccc2)nc2ccccc2c1=O`, the activity change, negative = inhibition was inconclusive: -49.6%.
For `CC(C)C1OC2(C)OC(=N)C1(C#N)C(C#N)(C#N)C2c1ccccc1` (stereo not drawn), the activity change, negative = inhibition was inconclusive: -57.9%.
In the case of `O=c1cc2c(nn1Cc1cccc(Cl)c1)-c1ccccc1CC2`, the activity change, negative = inhibition is reported as inactive: -29%.
In the case of `O=C(NCCS(=O)(=O)N1CCN(c2ccccc2F)CC1)c1ccc(Br)cc1`, the activity change, negative = inhibition is reported as inactive: -19.2%.
With `CC(C)(C)OC(=O)N1CCC(c2c(C(=O)NCC3CCN(C4CCCC4)C3)cnn2-c2ccccc2)CC1` (stereo not drawn) the activity change, negative = inhibition was inactive: -26.1%.
For `Cc1ccccc1N(C)C(=O)c1noc2c1COc1ccccc1-2`, the activity change, negative = inhibition was inconclusive: -41%.
In the case of `COC(=O)[C@H]1C[C@@H]1[C@H](NP(=O)(c1ccccc1)c1ccccc1)c1ccccc1`, the activity change, negative = inhibition is reported as inactive: -11%.
With `O=C(NCc1nnc2c3ccccc3c(-c3ccccc3)nn12)c1ccc(Cl)cc1` the activity change, negative = inhibition was inconclusive: -52.4%.

— PubChem BioAssay AID1259415 (National Center for Advancing Translational Sciences (NCATS), 2018)
% is set by controls: 0 for no effect and ±100 for the full control effect.
